According to the supplement of paper PMC11732987, “Enantioselective OTUD7B fragment discovery through chemoproteomics screening and high-throughput optimisation” (Communications Chemistry, 2025):
This is one part of the list. The data scatter; read single values as rough.

Amino acid sequences for entries named in this document (tags omitted). A change or cut given only in a name is not applied to a line headed by its entry. Residues count along the entry.
UniProt Q7L3T8, 151-170: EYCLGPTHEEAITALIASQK
UniProt Q53EL6: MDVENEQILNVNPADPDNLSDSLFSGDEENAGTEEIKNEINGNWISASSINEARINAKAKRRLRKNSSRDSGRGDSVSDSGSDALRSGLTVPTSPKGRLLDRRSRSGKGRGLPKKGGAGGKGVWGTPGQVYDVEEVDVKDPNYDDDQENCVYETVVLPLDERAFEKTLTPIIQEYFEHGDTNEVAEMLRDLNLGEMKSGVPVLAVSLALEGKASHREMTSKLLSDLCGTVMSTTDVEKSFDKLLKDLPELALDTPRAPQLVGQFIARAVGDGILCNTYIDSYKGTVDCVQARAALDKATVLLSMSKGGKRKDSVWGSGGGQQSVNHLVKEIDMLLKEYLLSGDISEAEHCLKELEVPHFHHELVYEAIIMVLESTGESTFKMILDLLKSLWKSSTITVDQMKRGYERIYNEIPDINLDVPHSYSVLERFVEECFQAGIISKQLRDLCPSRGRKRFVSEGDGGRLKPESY
UniProt Q14432, 519-541: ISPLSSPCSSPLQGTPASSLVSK
UniProt O00541: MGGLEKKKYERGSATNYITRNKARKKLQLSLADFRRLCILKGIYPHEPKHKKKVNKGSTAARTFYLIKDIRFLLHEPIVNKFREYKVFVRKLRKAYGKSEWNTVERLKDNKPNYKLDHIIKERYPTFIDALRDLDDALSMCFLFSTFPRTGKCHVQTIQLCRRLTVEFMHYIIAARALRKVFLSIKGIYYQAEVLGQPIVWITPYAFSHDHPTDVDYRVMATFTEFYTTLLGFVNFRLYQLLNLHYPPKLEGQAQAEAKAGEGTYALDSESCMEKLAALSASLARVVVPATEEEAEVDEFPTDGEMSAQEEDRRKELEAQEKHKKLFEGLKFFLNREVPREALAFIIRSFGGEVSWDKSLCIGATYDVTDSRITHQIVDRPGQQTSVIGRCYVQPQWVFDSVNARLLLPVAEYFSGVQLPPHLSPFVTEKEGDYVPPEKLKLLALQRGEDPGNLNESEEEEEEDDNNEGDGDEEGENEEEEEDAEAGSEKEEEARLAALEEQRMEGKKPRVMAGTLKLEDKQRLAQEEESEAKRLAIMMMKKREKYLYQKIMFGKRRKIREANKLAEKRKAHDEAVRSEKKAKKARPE
UniProt Q13608: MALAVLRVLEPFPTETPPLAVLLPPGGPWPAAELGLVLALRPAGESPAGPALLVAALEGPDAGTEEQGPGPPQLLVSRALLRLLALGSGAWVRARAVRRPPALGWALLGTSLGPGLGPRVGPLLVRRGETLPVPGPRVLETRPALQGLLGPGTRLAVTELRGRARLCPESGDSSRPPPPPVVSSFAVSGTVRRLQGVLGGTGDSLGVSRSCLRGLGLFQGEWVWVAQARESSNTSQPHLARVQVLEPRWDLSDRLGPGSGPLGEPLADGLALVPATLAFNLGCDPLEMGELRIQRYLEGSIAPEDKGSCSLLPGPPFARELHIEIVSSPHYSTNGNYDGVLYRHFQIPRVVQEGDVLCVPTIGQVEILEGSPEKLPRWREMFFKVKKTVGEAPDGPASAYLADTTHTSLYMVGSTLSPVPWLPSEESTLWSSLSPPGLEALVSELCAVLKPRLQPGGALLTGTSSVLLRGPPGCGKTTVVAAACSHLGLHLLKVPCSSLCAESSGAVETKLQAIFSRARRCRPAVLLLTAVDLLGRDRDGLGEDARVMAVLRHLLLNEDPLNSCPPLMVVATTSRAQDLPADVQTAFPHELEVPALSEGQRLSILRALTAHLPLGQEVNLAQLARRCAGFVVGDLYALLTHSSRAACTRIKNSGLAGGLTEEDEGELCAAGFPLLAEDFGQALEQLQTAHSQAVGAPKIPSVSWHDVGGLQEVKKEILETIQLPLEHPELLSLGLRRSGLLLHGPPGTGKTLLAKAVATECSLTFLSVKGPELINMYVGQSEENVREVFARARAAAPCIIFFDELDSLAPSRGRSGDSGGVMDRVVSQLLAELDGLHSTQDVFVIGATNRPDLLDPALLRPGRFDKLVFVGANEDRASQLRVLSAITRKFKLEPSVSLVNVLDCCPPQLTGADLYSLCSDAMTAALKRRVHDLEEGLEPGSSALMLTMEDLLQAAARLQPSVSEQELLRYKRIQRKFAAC
UniProt Q9BZ23: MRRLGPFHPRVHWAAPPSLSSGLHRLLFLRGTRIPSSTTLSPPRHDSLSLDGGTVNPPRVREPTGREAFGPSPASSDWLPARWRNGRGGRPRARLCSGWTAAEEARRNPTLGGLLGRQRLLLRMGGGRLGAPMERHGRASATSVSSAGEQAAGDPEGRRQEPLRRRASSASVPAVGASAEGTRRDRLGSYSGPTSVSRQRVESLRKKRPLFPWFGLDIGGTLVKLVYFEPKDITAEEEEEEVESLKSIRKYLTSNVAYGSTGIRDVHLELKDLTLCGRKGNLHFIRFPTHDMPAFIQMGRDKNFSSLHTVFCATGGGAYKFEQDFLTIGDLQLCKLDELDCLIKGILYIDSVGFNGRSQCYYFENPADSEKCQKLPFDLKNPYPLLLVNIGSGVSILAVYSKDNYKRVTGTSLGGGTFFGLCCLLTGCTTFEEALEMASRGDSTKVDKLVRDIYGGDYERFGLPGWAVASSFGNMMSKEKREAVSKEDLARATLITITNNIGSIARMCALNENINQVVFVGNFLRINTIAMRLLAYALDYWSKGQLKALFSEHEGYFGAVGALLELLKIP
UniProt Q16875: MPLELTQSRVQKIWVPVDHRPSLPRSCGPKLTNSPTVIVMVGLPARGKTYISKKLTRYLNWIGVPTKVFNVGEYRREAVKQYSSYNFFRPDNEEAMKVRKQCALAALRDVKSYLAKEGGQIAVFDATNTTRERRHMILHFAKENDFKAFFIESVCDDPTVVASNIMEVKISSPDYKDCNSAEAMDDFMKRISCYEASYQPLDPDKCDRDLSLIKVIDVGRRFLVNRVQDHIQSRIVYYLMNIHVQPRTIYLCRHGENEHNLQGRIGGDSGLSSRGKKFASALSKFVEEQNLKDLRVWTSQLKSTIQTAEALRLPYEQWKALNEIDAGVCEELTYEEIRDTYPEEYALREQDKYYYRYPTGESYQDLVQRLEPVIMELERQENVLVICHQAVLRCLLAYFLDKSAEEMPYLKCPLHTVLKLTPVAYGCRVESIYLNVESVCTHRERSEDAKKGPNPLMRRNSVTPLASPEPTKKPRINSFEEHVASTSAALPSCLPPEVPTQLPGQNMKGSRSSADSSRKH
UniProt Q8WUM4: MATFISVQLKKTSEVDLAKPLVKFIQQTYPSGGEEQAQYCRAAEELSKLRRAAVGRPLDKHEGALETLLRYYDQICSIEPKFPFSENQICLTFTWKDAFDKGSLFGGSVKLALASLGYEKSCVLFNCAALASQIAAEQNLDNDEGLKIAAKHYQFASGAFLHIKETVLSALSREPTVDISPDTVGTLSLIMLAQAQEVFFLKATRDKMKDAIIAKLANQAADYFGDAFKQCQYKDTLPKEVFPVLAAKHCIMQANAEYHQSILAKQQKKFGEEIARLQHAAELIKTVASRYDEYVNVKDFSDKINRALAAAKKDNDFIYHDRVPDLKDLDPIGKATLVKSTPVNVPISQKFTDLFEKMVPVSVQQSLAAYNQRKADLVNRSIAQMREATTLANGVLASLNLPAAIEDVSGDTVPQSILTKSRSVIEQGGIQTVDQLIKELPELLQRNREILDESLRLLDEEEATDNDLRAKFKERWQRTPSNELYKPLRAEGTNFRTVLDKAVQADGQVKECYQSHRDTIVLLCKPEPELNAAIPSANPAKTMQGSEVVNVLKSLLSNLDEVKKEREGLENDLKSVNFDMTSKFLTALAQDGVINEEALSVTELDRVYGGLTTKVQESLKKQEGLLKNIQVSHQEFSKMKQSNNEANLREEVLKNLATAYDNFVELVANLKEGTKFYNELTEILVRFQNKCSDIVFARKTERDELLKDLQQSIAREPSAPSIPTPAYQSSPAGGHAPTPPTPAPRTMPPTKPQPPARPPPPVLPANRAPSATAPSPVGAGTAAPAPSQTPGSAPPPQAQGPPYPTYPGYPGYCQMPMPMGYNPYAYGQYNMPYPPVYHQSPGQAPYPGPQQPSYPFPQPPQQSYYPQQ
UniProt Q14690: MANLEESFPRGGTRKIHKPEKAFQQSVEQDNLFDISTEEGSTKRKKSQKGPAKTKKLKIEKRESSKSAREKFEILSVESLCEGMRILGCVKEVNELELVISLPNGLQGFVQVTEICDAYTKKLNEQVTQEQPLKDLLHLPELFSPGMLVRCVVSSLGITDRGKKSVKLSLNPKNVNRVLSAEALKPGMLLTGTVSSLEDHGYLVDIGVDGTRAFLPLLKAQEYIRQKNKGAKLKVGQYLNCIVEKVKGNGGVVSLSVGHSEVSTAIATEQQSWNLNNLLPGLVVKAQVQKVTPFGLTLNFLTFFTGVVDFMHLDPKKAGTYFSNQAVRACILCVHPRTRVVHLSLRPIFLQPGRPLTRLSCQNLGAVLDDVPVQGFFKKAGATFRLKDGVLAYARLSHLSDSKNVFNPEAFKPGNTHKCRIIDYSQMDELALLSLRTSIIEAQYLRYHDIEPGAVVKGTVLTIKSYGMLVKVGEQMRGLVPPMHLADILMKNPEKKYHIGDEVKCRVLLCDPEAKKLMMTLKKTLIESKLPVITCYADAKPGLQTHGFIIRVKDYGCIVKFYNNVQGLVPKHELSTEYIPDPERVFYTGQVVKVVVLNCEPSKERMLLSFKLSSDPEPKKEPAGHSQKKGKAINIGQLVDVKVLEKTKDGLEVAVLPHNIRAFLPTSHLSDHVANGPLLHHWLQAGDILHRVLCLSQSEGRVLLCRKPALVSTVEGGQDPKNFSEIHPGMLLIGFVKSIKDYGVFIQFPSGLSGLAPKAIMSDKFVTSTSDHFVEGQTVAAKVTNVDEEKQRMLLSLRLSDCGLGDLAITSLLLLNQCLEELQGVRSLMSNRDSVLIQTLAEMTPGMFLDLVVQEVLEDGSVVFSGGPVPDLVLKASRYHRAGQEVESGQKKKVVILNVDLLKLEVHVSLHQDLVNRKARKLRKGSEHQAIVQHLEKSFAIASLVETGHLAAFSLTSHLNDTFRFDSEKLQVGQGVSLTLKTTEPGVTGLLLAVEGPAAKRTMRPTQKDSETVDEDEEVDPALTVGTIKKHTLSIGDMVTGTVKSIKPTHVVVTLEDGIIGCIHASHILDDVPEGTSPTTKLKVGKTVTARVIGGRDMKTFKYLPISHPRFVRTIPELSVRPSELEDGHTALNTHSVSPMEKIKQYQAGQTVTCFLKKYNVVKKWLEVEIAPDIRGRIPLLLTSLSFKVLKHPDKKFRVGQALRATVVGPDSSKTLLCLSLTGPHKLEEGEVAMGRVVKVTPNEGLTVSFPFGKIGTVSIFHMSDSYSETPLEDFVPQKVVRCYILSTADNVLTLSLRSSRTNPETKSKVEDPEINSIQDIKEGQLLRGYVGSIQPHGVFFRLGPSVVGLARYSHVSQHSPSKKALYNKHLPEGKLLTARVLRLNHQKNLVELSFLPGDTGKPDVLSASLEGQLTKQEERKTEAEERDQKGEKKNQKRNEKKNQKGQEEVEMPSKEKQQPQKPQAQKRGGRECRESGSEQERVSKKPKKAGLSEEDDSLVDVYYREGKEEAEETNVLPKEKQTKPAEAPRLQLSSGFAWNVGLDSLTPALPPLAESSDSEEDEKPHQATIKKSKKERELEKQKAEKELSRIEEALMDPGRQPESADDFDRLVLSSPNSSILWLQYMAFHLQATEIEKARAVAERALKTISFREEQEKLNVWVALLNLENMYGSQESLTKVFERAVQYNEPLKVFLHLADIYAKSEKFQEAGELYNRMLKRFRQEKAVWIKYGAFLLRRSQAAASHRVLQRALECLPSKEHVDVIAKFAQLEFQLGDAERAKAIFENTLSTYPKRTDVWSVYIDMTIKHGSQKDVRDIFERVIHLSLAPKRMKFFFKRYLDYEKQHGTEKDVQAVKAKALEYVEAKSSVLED
UniProt O95453: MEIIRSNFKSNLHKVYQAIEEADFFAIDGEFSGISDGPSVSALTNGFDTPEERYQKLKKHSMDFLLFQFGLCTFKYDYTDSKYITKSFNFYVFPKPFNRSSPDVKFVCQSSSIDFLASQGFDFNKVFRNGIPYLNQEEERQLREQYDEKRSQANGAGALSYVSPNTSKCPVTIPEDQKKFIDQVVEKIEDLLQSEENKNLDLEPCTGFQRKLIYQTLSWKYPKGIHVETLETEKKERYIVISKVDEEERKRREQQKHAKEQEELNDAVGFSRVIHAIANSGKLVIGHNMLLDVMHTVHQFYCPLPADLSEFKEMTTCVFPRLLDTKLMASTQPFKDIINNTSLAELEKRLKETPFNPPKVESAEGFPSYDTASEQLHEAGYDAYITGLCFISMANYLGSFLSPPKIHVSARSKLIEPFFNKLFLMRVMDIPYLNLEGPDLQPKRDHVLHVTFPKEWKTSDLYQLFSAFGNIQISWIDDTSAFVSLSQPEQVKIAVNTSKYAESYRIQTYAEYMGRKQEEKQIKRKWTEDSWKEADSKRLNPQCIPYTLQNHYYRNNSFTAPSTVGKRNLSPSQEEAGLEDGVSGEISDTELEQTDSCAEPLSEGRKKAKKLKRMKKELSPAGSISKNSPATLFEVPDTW

Assays:
[1] = compound: ClCC(=O)N[C@@H]1CCCc2ccccc12; assay: log2 mean competition ratio of IA-DTB cysteine labelling (DMSO/compound) (log2 ratio); higher = stronger cysteine engagement by compound; conditions: treatment time: 4 h, cell line lysate: HEK293T
Method: (§1)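 IA-DTB competitive cysteine chemoproteomics in HEK293T RIPA lysate. Lysates were treated with compound 29 or 30 at 50 or 200 µM for 4 h, then IA-DTB (500 µM, 1 h), trypsin-digested, NeutrAvidin-enriched and analysed by diaPASEF. Competition ratio = intensity DMSO / intensity compound (n=4 treated, n=64 DMSO); binding: mean log2 CR ≥ 1 and p ≤ 0.05 plus QC filters. Target is the cysteine site.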

[2] = compound: ClCC(=O)N[C@H]1CCCc2ccccc12; assay: as above; conditions: treatment time: 4 h, cell line lysate: HEK293T
Method: as §1

Target	log2 mean competition ratio ([1]; 50 µM)	log2 mean competition ratio ([1]; 200 µM)	log2 mean competition ratio ([2]; 50 µM)	log2 mean competition ratio ([2]; 200 µM)
PARS2 C153 (UniProt Q7L3T8)	0.0185	-0.0257	-0.409	-0.222
PCCB C90 (UniProt P05166)	0.0321	-0.115	-0.0409	-0.0201
PELP1 C522 (UniProt Q8IZL8)	-0.0594	0.322	0.138	0.154
PDCD4 C288 (UniProt Q53EL6)	0.127	0.183	0.208	0.0258
PBK C300 (UniProt Q96KB5)	-0.277	-0.258	-0.618	-0.6
PDE3A C526 (UniProt Q14432)	-0.071	0.629	0.179	0.494
PES1 C361 (UniProt O00541)	0.549	0.16	0.745	0.0975
PGD C402	-0.129	-0.17	-0.325	-0.0309
PES1 C272 (UniProt O00541)	0.357	0.384	0.41	0.158
PACSIN3 C421 (UniProt Q9UKS6)	-0.171	-0.0722	-0.0543	0.327
PEX6 C309 (UniProt Q13608)	-0.0498	-0.317	-0.0876	-0.359
PCDHGC3 C792	0.274	-0.0323	0.0906	0.282
PANK2 C276 (UniProt Q9BZ23)	0.095	0.153	0.333	0.204
PEAK1 C993 (UniProt Q9H792)	0.0685	-0.27	0.318	-0.261
PFKFB3 C440 (UniProt Q16875)	0.205	0.177	0.3	-0.0325
OXNAD1 C69 (UniProt Q96HP4)	-0.237	-0.0593	-0.318	-0.0755
PDCD6IP C76 (UniProt Q8WUM4)	0.000741	-0.118	-0.442	-0.183
PDK1 C71	-0.339	0.221	-0.157	0.321
OTUD4 C45 (UniProt Q01804)	0.28	1.58	0.131	1.65
PA2G4 C296 (UniProt Q9UQ80)	-0.0901	-0.11	0.125	-0.089
PEX19 C8 (UniProt P40855)	-0.3	-0.192	-0.191	0.0201
PCIF1 C524 (UniProt Q9H4Z3)	-0.153	-0.0715	0.233	0.358
PDK1 C421	0.0274	0.099	0.284	0.164

Part of the list above, in markdown:

| Target | log2 mean competition ratio ([1]; 50 µM) | log2 mean competition ratio ([1]; 200 µM) | log2 mean competition ratio ([2]; 50 µM) | log2 mean competition ratio ([2]; 200 µM) |
| --- | --- | --- | --- | --- |
| PELP1 C522 (UniProt Q8IZL8) | -0.0594 | 0.322 | 0.138 | 0.154 |
| PES1 C361 (UniProt O00541) | 0.549 | 0.16 | 0.745 | 0.0975 |
| PDK1 C421 | 0.0274 | 0.099 | 0.284 | 0.164 |

Continuation.

Target	log2 mean competition ratio ([1]; 50 µM)	log2 mean competition ratio ([1]; 200 µM)	log2 mean competition ratio ([2]; 50 µM)	log2 mean competition ratio ([2]; 200 µM)
PARD6G C112	0.115	0.297	0.185	0.294
PDCD11 C81 (UniProt Q14690)	0.0588	0.209	0.0424	0.0305
OTUD5 C224 (UniProt Q96G74)	0.0633	-0.115	0.0684	-0.147
P3H4 C101 (UniProt Q92791)	-0.0497	-0.0788	-0.156	0.102
PARD6G C16	-0.208	-0.27	-0.414	-0.072
PDCD4 C350 (UniProt Q53EL6)	0.158	-0.417	0.272	-0.564
PCBP1 C158 (UniProt Q15365)	-0.199	-0.186	-0.283	-0.163
PGM2L1 C303 (UniProt Q6PCE3)	0.297	0.632	0.39	0.12
PCCB C269 (UniProt P05166)	0.162	0.18	0.315	-0.183
PFKM C631	-0.0763	0.412	0.368	0.0879
PCDH9 C401	-0.0739	-0.112	0.283	0.0919
PDCD6IP C40 (UniProt Q8WUM4)	0.0935	0.63	0.347	0.633
PARN C205 (UniProt O95453)	-0.148	-0.419	-0.182	-0.379
PCNT C2059 (UniProt O95613)	0.12	-0.0419	-0.126	0.0619
PFKFB2 C105 (UniProt O60825)	-0.0909	-0.0267	-0.249	0.0192
PDXDC1 C481 (UniProt Q6P996)	-0.144	-0.0985	-0.133	0.0478
PFKM C709	0.282	0.64	0.224	0.494
PASK C89 (UniProt Q96RG2)	0.0687	-0.231	0.0621	-0.259
PCSK6 C528 (UniProt P29122)	-0.00511	-0.0387	-0.147	0.0442
PALLD C1319 (UniProt Q8WX93)	0.00566	-0.351	0.254	-0.496
PAXIP1 C748 (UniProt Q6ZW49)	-0.0954	-0.391	0.279	-0.187
PARD3 C16 (UniProt Q8TEW0)	0.185	-0.192	0.12	-0.181
OTUD4 C686 (UniProt Q01804)	-0.323	1.85	0.267	-0.0059
